According to patent US9453842B2, “Inhibition of peroxidase enzymatic activity” (Roche Molecular Systems, Inc., priority 2006, dated 2016):

Test system: horseradish peroxidase (HRP)
Experiment: Inhibition of ABTS turnover catalyzed by a high amount of HRP (sandwich ELISA, CAM-induced Jurkat cell lysate)
Format: biochemical, horseradish (Armoracia rusticana)
Conditions: high concentrations of 0.5 to 0.25M
Method: FIG. 2, A and B: inhibition of ABTS turnover catalyzed by a high amount of HRP detection of a high amount of mono- and oligosomes in Jurkat cells; further details are given in Example 1. All other designations are the same as in FIG. 1. Jurkat cells were cultured and subsequently divided into two culture dishes. In one dish the cells were treated with 1 μg/ml CAM (Camptothecin) to induce apoptosis, thereby leading to the formation of mono and oligonucleosomes, the target antigen. After an incubation period of 4 hours the cells of both dishes were harvested separately by centrifugation, lysed by the detergent contained in the Cell Death Detection ELISA Plus (Roche Diagnostics GmbH, Mannheim, Germany; Catalog No. 1920685), and frozen. The mono and oligonucleosomes consisting of DNA and histones H2A, H2B, H3 and H4 were detected in thawed cell homogenate by way of a sandwich ELISA. Antigen was captured with a first monoclonal antibody against histone from the Cell Death Detection ELISA Plus kit. The antibody was coated onto the walls of a 96-well microplate. The detection antibody was a DNA-specific polyclonal antibody conjugated with horseradish peroxidase. Non-induced and CAM-induced Jurkat cells yielded low and high amounts of target antigen, thereby leading to low and high absolute amounts of horseradish peroxidase enzymatic activity in the respective wells. […]

SMILES: O=C(O)C(=O)O [oxalic acid]
- Precipitation of the substrate: cause precipitation of the substrate

SMILES: O=S(=O)(O)O [sulfuric acid]
- Precipitation of the substrate: cause precipitation of the substrate
